From patent US20040175375A1 (SEOUL NATIONAL UNIVERSITY INDUSTRY FOUNDATION, published 2004)

Target: PI3K
Assay: co-immunoprecipitation from HCT116 cells, western blot

binding: no binding
B1: HA-(p38/JTV-1) (protein, not shown: small tags and cut ends)
chain: MPMYQVKPYHGGGAPLRVELPTCMYRLPNVHGRSYGPAPGAGHVQEESNLSLQALESRQDDILKRLYELKAAVDGLSKMIQTPDADLDVTNIIQADEPTTLTTNALDLNSVLGKDYGALKDIVINANPASPPLSLLVLHRLLCEHFRVLSTVHTHSSVKSVPENLLKCFGEQNKKQPRQDYQLGFTLIWKNVPKTQMKFSIQTMCPIEGEGNIARFLFSLFGQKHNAVNATLIDSWVDIAIFQLKEGSSKEKAAVFRSMNSALGKSPWLAGNELTVADVVLWSVLQQIGGCSVTVPANVQRWMRSCENLAPF

Results are given in words; binding and its absence hold for the method and conditions named. In cells and extracts the contact can be indirect. Tags and fused reporters may be left off the sequences shown.
